The results in this text go back to article PMC7864075.

Amino acid sequences for entries named in this document (tags omitted).
UniProt Q9NQB0: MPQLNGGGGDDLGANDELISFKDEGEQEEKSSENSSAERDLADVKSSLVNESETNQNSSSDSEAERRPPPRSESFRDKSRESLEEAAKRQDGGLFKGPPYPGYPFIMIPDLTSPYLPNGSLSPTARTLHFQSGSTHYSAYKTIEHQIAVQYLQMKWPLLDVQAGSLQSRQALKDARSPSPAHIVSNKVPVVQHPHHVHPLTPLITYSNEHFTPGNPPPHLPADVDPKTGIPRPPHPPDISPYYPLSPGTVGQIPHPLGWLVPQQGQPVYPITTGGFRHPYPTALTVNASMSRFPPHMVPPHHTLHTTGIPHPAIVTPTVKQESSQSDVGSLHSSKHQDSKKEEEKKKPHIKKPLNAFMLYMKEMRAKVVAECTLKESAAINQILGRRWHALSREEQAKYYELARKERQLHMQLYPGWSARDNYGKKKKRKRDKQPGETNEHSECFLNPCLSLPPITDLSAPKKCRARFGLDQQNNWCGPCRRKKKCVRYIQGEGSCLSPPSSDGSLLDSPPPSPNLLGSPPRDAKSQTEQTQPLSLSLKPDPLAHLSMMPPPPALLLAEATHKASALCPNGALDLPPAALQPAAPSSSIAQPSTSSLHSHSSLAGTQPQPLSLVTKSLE
UniProt P61758: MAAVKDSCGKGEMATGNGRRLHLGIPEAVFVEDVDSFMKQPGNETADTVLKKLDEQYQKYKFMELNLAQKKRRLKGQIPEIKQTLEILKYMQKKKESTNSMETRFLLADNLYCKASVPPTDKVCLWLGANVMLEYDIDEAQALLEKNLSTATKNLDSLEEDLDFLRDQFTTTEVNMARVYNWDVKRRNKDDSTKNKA
UniProt P40337: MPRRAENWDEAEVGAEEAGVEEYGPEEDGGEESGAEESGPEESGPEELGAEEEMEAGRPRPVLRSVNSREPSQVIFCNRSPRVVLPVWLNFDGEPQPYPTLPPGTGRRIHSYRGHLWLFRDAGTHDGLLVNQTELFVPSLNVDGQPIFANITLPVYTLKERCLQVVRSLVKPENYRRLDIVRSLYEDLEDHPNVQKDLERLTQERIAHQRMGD

These are yes or no findings as the source states them, for the method shown. Binding seen in cells or lysates may run through a third protein. Some binding calls cover weakened binding; strength is not graded here.

The target of assay [1] is HA-tagged TCF7L2 (WT) (human) (UniProt Q9NQB0). In words: co-IP; HEK293T cells cotransfected with HA-tagged TCF7L2 or its deletion mutants and FLAG-VBP1; cell lysates subjected to co-immunoprecipitation; the precipitating antibody is not told.
For the next assay, the target named is GST-VBP1 (human) (UniProt P61758). Nature of the assay: pull-down; GST-VBP1 from bacteria held on GSH Sepharose 4B beads, incubated 2 h at 4 °C with lysates of nontransfected HEK293T cells or of HEK293T cells transfected with Myc-Tcf/Lefs or FLAG-pVHL; 50 mM Tris pH 7.5, 150 mM NaCl, 1 mM EDTA, 10% glycerol, 1% Triton X-100; only the target purified.
Assay [2] addresses FLAG-tagged VBP1 (pVHL binding protein 1) (human) (UniProt P61758). In words: co-IP; HEK293T cells transfected with FLAG-VBP1; after 48 h extracts immunoprecipitated with anti-FLAG antibody, endogenous partners detected by Western blot; IP lysis buffer 50 mM Tris pH 7.5, 150 mM NaCl, 1 mM EDTA, 10% glycerol, 1% Triton X-100. In general terms: In western blotting, separated proteins are transferred to a membrane and probed.

The target in assay [3] is endogenous TCF7L2 (human (endogenous in HEK293T and HCT116)) (UniProt Q9NQB0). Nature of the assay: co-IP; endogenous proteins; extracts of HEK293T cells (control, FLAG-VBP1 overexpression or VBP1 shRNA knockdown) and HCT116 cells (control or VBP1 knockdown) immunoprecipitated with anti-TCF7L2 antibody, Western blot.

For the substance “FLAG-tagged VBP1 (pVHL binding protein 1) (from UniProt P61758 1-197)”, the binding result in assay [1] is given as “binds”.

As for “FLAG-tagged pVHL (from UniProt P40337 1-213)”, the binding entry with GST-VBP1 (human) is recorded as “binds”. As to “endogenous TCF7L2 (from UniProt Q9NQB0 1-619)”, the binding entry (with GST-VBP1 (human); in assay [2]) was “binds” throughout. For the substance “endogenous von Hippel-Lindau tumor-suppressor protein (pVHL) (from UniProt P40337 1-213)”, the binding result in assay [3] and in assay [2] was “binds” each time.
